Results deposited as PubChem BioAssay AID504793 (Drosophila RNAi Screening Center, 2011)
Aim: 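Whole-genome screen for parts of the DNA damage checkpoint at G2/M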 (primary screen). Cell system: Drosophila S2R+ cells. Reagent: long dsRNA against Drosophila genes, about 0.25 µg dsRNA per well. Duration: 4 days of dsRNA, then 4 hours of drug before read-out. Challenge: doxorubicin 0.5 µM for 4 hours to cause double-strand breaks, in cells also given a low, harmless dose of dsRNA against nbs to sensitise the assay. Read-out: 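Mitotic index as the number of phospho-histone H3-positive cells in each well following doxorubicin, given as raw counts without normalisation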. Direction: mitotic cells: higher = more cells in mitosis, weaker G2 arrest. Hit rule: 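a call needs confirmation in secondary tests, with other dsRNAs and a check of mitotic timing without damage, not just a high primary count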. Meaning of the calls: active = confirmed in follow-up tests; inactive = not confirmed.
The screen tested about 23,000 reagents; this is a random part of those with a known target gene and a result. In the full data, 62 (0.27%) are marked active. 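Calls come from follow-up tests whose scores are not deposited, so confirmed genes may have low counts here; counts are not normalised per plate.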 Raw values vary from plate to plate and are shown uncorrected. Unmarked entries are inactive.

Silencing of Rip11 (GeneID 32850) [DRSC20000] resulted in: mitotic cells, replicate 1 = 2.
Silencing of Rip11 (GeneID 32850) [DRSC29902] gave: mitotic cells, replicate 1 = 7.
TBC1d7 (GeneID 42869) [DRSC15985] scored mitotic cells, replicate 1 = 9.
Depletion of CG15143 (GeneID 35062) [DRSC02444] came out at: mitotic cells, replicate 1 = 6.
For sel (GeneID 36046) [DRSC06232] the deposit lists mitotic cells, replicate 1 = 4; mitotic cells, replicate 2 = 11.
CG30016 (GeneID 246393) [DRSC05242] showed mitotic cells, replicate 1 = 8.
Depletion of CG13601 (GeneID 42826) [DRSC14604] gave: mitotic cells, replicate 1 = 7.
Depletion of slgA (GeneID 33117) [DRSC20586] gave: mitotic cells, replicate 1 = 4.
Silencing of slgA (GeneID 33117) [DRSC27543] came out at: mitotic cells, replicate 1 = 6.
With knock-down of CG31729 (GeneID 34736) [DRSC02524], the screen gave mitotic cells, replicate 1 = 3.
Silencing of CG31729 (GeneID 34736) [DRSC02946] came out at: mitotic cells, replicate 1 = 5.
With knock-down of CG31729 (GeneID 34736) [DRSC25841], the screen gave mitotic cells, replicate 1 = 2.
For Svil (GeneID 38306) [DRSC08296], the values are mitotic cells, replicate 1 = 3.
Against Svil (GeneID 38306) [DRSC08332], the entry reads mitotic cells, replicate 1 = 9.
Svil (GeneID 38306) [DRSC08494] gave mitotic cells, replicate 1 = 5.
After knock-down of Svil (GeneID 38306) [DRSC24435], the record shows mitotic cells, replicate 1 = 2.
With knock-down of Svil (GeneID 38306) [DRSC25804], the record shows mitotic cells, replicate 1 = 8.

Single entries from above:
Result of Svil (GeneID 38306) [DRSC08332] under “mitotic cells, replicate 1”: 9
Value of Rip11 (GeneID 32850) [DRSC20000] under “mitotic cells, replicate 1”: 2
Svil (GeneID 38306) [DRSC25804], mitotic cells, replicate 1: 8
